Assay results: PubChem BioAssay AID1439 (NMMLSC, 2008)
About 770 (0.35%) of roughly 220,000 compounds were called active. Inconclusive results, whose numbers are uncertain, are shown with a selection of clear calls. Cut-off read from the data, not from the text of the source: active = binding response below about 49% or above about 150%; inconclusive = no clear call, values can overlap the other calls; inactive = in between.

Protein sequences, listed by entry. Tags and fused reporters are not part of them.
UniProt P09471, whole entry, looked up: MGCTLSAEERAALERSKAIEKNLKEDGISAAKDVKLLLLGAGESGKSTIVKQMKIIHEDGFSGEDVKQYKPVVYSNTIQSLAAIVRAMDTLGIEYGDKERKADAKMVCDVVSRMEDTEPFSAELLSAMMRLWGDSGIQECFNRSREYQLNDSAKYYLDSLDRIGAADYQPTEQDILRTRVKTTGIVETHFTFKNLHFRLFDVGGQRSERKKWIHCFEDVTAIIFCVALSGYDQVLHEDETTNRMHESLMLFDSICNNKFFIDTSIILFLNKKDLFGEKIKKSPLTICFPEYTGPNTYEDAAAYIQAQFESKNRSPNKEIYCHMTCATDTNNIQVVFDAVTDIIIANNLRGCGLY

Molecular target: Guanine nucleotide-binding protein G(o) subunit alpha (Homo sapiens) (UniProt P09471)
Assay: RGS7-Galphao binding modulators, primary screen, biochemical, multiplexed bead flow cytometry (AID 1439);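 note: fluorescent Galphao held in activated GDP-AlF4 state binding bead-coupled RGS7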
Conditions: at 10 µM, actives lie on both sides

| Compound | binding response (% of control) |
| --- | --- |
| Cc1ccc(S(=O)(=O)Nc2ccc(NC(=O)/C=C/C(=O)O)cc2)cc1 | inconclusive: 102% |
| Fc1cc(F)cc(NC(=S)Nc2ccccc2N2CCOCC2)c1 | inactive: 99.7% |
| O=C(NCc1ccncc1)C(=O)NCC(c1ccco1)N1CCN(c2ccccc2)CC1 (centres undefined) | inconclusive: 92.3% |
| Cc1ccccc1-n1cnc2c(sc3nc(N4CCOCC4)c4c(c32)CCCC4)c1=O | inconclusive: 117% |
| Cc1noc(-c2ccccc2)c1NC(=O)Nc1ccccc1 | inconclusive: 130% |
| O=C(Cn1nnc(-c2cccs2)n1)N1CCOCC1 | inconclusive: 103% |
| Cc1cccc(C(=O)OCC(=O)Nc2nccs2)c1 | inactive: 93.6% |
| O=C1CC(/C=C/c2ccc([N+](=O)[O-])cc2)=Nc2ccccc2N1 | inconclusive: 89.5% |
| O=C(NNC(=O)c1nn(-c2ccc(F)cc2)ccc1=O)c1ccccc1Cl | inconclusive: 126% |
| Cc1nc(CN(C)Cc2nc(Cc3ccccc3Cl)no2)cs1 | inactive: 102% |
| CC12CN3CC(C)(CN(C1)C3c1ccc([N+](=O)[O-])o1)C2 (centres undefined) | inconclusive: 75.4% |
| COc1cc(Br)c(Br)c(Br)c1N | inconclusive: 121% |
| O=C1CSC(=S)N1/N=C/c1cccnc1 | inconclusive: 103% |
| COCc1cc(=O)[nH]c2c1c(-c1ccccc1)nn2C | inconclusive: 121% |
| Cc1cc(SCc2cc(=O)[nH]c3ccccc23)nc2ccccc12 | inactive: 101% |
| CN(C)S(=O)(=O)c1ccc(C(=O)OCCn2cnc3c2c(=O)n(C)c(=O)n3C)cc1 | inactive: 96.7% |
| CN(C)S(=O)(=O)c1ccc(NC(=O)COc2ncnc3sccc23)cc1 | inconclusive: 104% |
| N=C1C(c2nc3ccccc3s2)=C(O)CN1c1ccccc1 | inactive: 99.1% |
| Cc1ccc(/C=C/C(=O)OCc2nc(N)nc(Nc3ccccc3C)n2)o1 | inactive: 100% |
| CCOC(=O)c1cc(C#N)c(Nc2ccc(C)cc2)nc1C(F)(F)F | inconclusive: 62.7% |

| Compound | binding response (% of control) |
| --- | --- |
| O=C(CCSc1ccccc1)NC1CCCCCC1 | inconclusive: 120% |
| O=[N+]([O-])c1ccccc1N/N=C1\CC2CC=CC12 (centres undefined) | inconclusive: 83.5% |
| CC[N+](CC)(CC)CC(=O)Nc1ccc(SC(F)F)cc1 | inconclusive: 82.7% |
| COC(=O)[C@H](CCSC)NC(=O)Nc1cc(OC)cc(OC)c1 | inconclusive: 88.3% |
| Cc1cc(N/N=C/c2ccccc2)nc(N2CCOCC2)n1 | inconclusive: 89.2% |
| C/C(=N/NC(=O)CN1CCN(Cc2ccccc2Cl)CC1)c1cccs1 | inconclusive: 97.9% |
| COc1ccc(S(=O)(=O)NCCCCCC(=O)O)cc1C(=O)O | inconclusive: 87.9% |
| CN(C)c1ccc(C2C3CCCc4ccccc4C3=NN2C)cc1 (centres undefined) | inconclusive: 198% |
| CCCC1Cc2nc(Cl)c(C#N)cc2CO1 (centres undefined) | inconclusive: 105% |
| COc1cc(O)oc1C=Nc1ccc(C(F)(F)F)cc1 | inactive: 95.3% |
| CCCC(=O)OCC(=O)c1[nH]c(C)c(C(C)=O)c1C | inconclusive: 81.2% |
| S=C(NC1CCCC1)N1CCN(C/C=C/c2ccccc2)CC1 | inconclusive: 97.5% |
| CC(=O)Nc1ccc(NC(=O)c2c(C)nn(-c3ccccc3)c2Cl)cc1C | inactive: 103% |
| CP(=O)(Nc1cc(Cl)ccc1Cl)c1nc2c(s1)CCCC2 (centres undefined) | inconclusive: 124% |
| Cc1csc2c(NC3CCN(Cc4ccccc4)CC3)ncnc12 | inconclusive: 90.4% |
| CN(C)S(=O)(=O)c1cccc(NC(=O)CNCc2ccccn2)c1 | inconclusive: 99.9% |
| CCN1C(=O)[C@H]2[C@H]3[C@H](O)[C@H](O)C/C(=N\OC[C@@H](C)[C@H](OCc4ccccc4)C(C)C)[C@@H]3CC[C@H]2C1=O | inactive: 100% |
| Cc1ccc(COCCN2CCN(S(=O)(=O)c3ccccc3)CCC2=O)cc1 | inconclusive: 114% |
| N#Cc1cnc(NN)nc1 | inconclusive: 95.1% |
| O=[N+]([O-])c1cc([N+](=O)[O-])c2c(=Nc3ccccc3)n(-c3ccccc3)n(O)c2c1 | inconclusive: 87.2% |

| Compound | binding response (% of control) |
| --- | --- |
| CCOc1ncccc1C(=O)Nc1nnc(C(CC)CC)s1 | inconclusive: 89.6% |
| O=C(Cn1cc(C(F)(F)F)ccc1=O)N/N=C/c1ccc(O)cc1 | inconclusive: 47.6% |
| O=C(O)c1cccc2c(-c3ccccc3)c(-c3ccccc3)[nH]c12 | inconclusive: 121% |
| O=C(NN1CC(=O)N(c2cc(Cl)cc(Cl)c2)CC1=O)c1cccs1 | inconclusive: 93.1% |
| CCCCN(C)CCNC(=O)c1ccc(Cn2c(=S)[nH]c3ccc(Br)cc3c2=O)cc1 | inactive: 104% |
| Cc1onc(-c2ccccc2)c1CNC(=O)Nc1cccc(Cl)c1 | inconclusive: 102% |
| Cc1ccccc1N1CC(=O)Nc2c(oc3nc(-c4ccccc4)cc(C)c23)C1=O | inconclusive: 213% |
| CCCCc1cc2c(cn1)=C(OC(=O)c1cnc3ccccc3n1)C(C)(OC(=O)CC)C(=O)C=2 (centres undefined) | inconclusive: 111% |
| O=C(CSc1n[nH]c(=O)[nH]c1=O)NC1CCCCC1 | inconclusive: 136% |
| COc1ccc(Nc2nc3ccc(C)cn3c(=O)c2/C=N/O)cc1 | inconclusive: 130% |
| COCCSc1ccccc1C(=O)Nc1ccc(Cl)cc1 | inconclusive: 73.5% |
| CCn1cc(C(=O)Nc2ccc3c(c2)OCCO3)c2cc(OC)c(OC)cc2c1=O | inactive: 95.5% |
| CCCCCCC1CC(=O)NC(=O)N1 (centres undefined) | inconclusive: 101% |
| O=C(NCc1cccnc1)c1cc(-c2ccc(Cl)cc2)oc1C(F)(F)F | inconclusive: 105% |
| COC(=O)/C=C1\N/C(=N\c2nc(C)cc(C)n2)N(c2ccccc2)C1=O | inconclusive: 173% |
| COc1ccc(C2=NN(C(N)=S)C(c3ccco3)C2)cc1 (centres undefined) | inconclusive: 109% |
| O=C(CCC(=O)NNC(=O)c1ccccc1[N+](=O)[O-])NCc1ccccc1 | inactive: 95.7% |
| Cn1nc(C(F)(F)F)c(-c2ccccc2)c1NC(=O)CSCC(=O)O | inconclusive: 118% |
| C#CCCCCCCC#CCN(C)C | inactive: 94.6% |

Rewritten with tabs: three of the compounds above
Compound	binding response (% of control)
COC(=O)/C=C1\N/C(=N\c2nc(C)cc(C)n2)N(c2ccccc2)C1=O	inconclusive: 173%
COc1ccc(C2=NN(C(N)=S)C(c3ccco3)C2)cc1 (centres undefined)	inconclusive: 109%
O=C(CCC(=O)NNC(=O)c1ccccc1[N+](=O)[O-])NCc1ccccc1	inactive: 95.7%
